Hit rate of the full screen: of about 580,000 compounds, about 6,100 (1.1%) were called active. The inconclusive results got no clear call from the source; some entries with a clear call stand among them for comparison. Calls follow the shape of the dose curve; as a rule, active = well fitted inhibition curve with a large enough effect; inconclusive = small, poorly fitted or top-dose-only effect, or another doubt; inactive = no such curve, though single readings can be large or run the other way. Potencies beside an inconclusive call are fits to weak or partial responses and may not hold up.
Biological target: Polyunsaturated fatty acid lipoxygenase ALOX12 (Homo sapiens) (UniProt P18054)
Test: Primary qHTS assay for inhibitors of human arachidonate 12S-lipoxygenase (ALOX12): Round 2
Conditions: purified 12hLO, xylenol orange hydroperoxide absorbance; activity change, negative = inhibition: at 108 µM (top of the series) unless noted
In short: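 Hydroperoxide product was detected by ferrous iron/xylenol orange as the 573 to 405 nm absorbance ratio. Arachidonic acid at 40 uM (final) was turned over for 30 min at room temperature by 150 nM human 12hLO, pH 7.0 Hepes buffer, after 15 min compound preincubation.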
% is scaled to controls: 0 for no effect and ±100 for the full control effect; potency is read from the fitted curve at half-maximal effect.

Amino acid sequences for entries named in this document (tags omitted). A change or cut given only in a name is not applied to a line headed by its entry.
UniProt P18054: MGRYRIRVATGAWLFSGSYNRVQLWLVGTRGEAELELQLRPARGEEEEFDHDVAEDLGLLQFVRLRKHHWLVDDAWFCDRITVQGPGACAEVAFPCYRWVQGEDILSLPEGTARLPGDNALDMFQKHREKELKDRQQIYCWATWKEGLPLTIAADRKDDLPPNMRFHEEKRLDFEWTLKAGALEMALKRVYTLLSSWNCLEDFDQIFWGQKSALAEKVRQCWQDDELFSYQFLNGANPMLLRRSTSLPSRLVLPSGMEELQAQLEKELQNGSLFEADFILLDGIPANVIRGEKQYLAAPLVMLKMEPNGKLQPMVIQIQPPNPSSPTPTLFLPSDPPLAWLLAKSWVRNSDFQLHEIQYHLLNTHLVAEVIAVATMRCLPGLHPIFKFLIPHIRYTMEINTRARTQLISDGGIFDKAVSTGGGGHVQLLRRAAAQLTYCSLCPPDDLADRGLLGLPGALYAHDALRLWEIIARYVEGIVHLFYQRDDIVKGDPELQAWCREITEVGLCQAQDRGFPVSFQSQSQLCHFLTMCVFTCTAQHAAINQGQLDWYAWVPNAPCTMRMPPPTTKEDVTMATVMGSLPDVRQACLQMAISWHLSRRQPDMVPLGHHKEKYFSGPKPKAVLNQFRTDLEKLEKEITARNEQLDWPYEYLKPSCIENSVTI

SMILES | activity change, negative = inhibition | Potency
O=C(O)Cc1ccc(OCCNC[C@H](O)c2ccccc2)cc1 | inactive: 0% | –
Cc1cccc(-c2noc(CCCC(=O)NCc3ccco3)n2)c1 | – | inconclusive: 63.1 µM [inhibitor, partial curve, poor fit]
CC(C)NC(=O)N1CC(c2ccccc2)C(c2ccc(Cl)cc2)=N1 (configuration not stated) | – | inconclusive: 44.7 µM [inhibitor, partial curve, poor fit]
O=C(CNC(=O)c1ccccc1Br)N/N=C/c1ccccc1O | – | inconclusive: 10 µM [inhibitor, full curve, poor fit]
CC(=O)Nc1ccc(/C=N/NC(N)=S)cc1 | inactive: -9.23% [at 22.9 µM] | –
COC(=O)C1=C(C)N(Cc2ccccc2)C(=S)NC1c1ccc(-c2ccccc2)cc1 (configuration not stated) | – | active: 22.4 µM
O=C(Cn1c(NCCCCl)nc2ccccc21)c1ccccc1 | – | inconclusive: 17.8 µM [inhibitor, full curve]
COC(=O)C1=C(C)N(Cc2ccccc2C(F)(F)F)C(=NCc2ccc3c(c2)OCO3)NC1c1ccc(Cl)cc1 (configuration not stated) | – | inconclusive: 50.1 µM [inhibitor, partial curve, poor fit]
Oc1cccc(-c2cc(-c3ccncc3)c3cncn3c2)c1 | – | inconclusive: 31.6 µM [inhibitor, full curve]
CCN(Cc1ccc(OC)c(OC)c1)C(=O)c1oc2ccc(Cl)cc2c1C | – | inconclusive: 44.7 µM [inhibitor, partial curve, poor fit]
COc1cccc(CNC(=O)c2cc3cccc4c3n2CC(C)S4)c1OC (configuration not stated) | – | inconclusive: 63.1 µM [inhibitor, partial curve, poor fit]
O=C(c1cn(Cc2ccccc2)nc1-c1ccccc1)N1CCN(c2ccccn2)CC1 | inactive: 218% | –
CCOC(=O)N1CCN(C(=O)C2CCN(C(=O)c3ccccc3C)CC2)CC1 | – | inconclusive: 35.5 µM [inhibitor, partial curve, poor fit]
Cc1ccc(NCc2ccco2)cc1C | – | inconclusive: 10 µM [inhibitor, full curve, poor fit]
Cc1ccc(S(=O)(=O)N(C)c2ccc(OC(=O)c3cccs3)cc2)cc1C | – | inconclusive: 79.4 µM [inhibitor, single point]
COc1cccc(CNCCNC(=O)c2ccco2)c1OC | inactive: 0% | –
O=C(c1ccccc1)N1CCN(C2CCCCCC2)CC1 | – | inconclusive: 0.794 µM [inhibitor, full curve, poor fit]
COc1ccccc1NC(=O)CCN1CC(C)OC(C)C1 (configuration not stated) | – | inconclusive: 35.5 µM [inhibitor, partial curve, poor fit]
COC(=O)c1ccc(OC(=O)c2cc(OC)cc(OC)c2)cc1 | – | inconclusive: 126 µM [inhibitor, partial curve, poor fit]
O=C(Nn1c(=O)[nH]c2ccccc2c1=O)c1ccco1 | – | inconclusive: 39.8 µM [inhibitor, partial curve, poor fit]
COc1cccc(C(=O)Nc2ccc(NC(=O)C(C)C)nc2)c1 | – | inconclusive: 56.2 µM [inhibitor, partial curve, poor fit]

SMILES | activity change, negative = inhibition | Potency
CCOc1cc(/C=N\Nc2ccc([N+](=O)[O-])cc2)ccc1OCC(=O)Nc1ccc(C)c(C)c1 | – | inconclusive: 89.1 µM [inhibitor, partial curve, poor fit]
NC(CSC1(c2ccc(Cl)cc2)c2ccccc2-c2ccccc21)C(=O)O (configuration not stated) | – | inconclusive: 50.1 µM [inhibitor, partial curve, poor fit]
COc1ccc(NC(=S)Nc2ccc3c(c2)c(=O)n(C)n3-c2ccccc2)cc1 | – | inconclusive: 56.2 µM [inhibitor, partial curve, poor fit]
O=C(c1ccc2c(c1)OCO2)N1CCC2(C1)C(=O)Nc1ccccc12 (configuration not stated) | inactive: 5.73% [at 6.33 µM] | –
O=C(O)c1cc(Nc2cc(Cl)c3nonc3c2[N+](=O)[O-])ccc1O | – | inconclusive: 39.8 µM [inhibitor, partial curve, poor fit]
CCOc1ccc2nc(N(CCCN(C)C)C(=O)c3ccc(C(=O)c4ccccc4)cc3)sc2c1 | – | inconclusive: 50.1 µM [inhibitor, partial curve, poor fit]
CC(C)(C)n1cnc2cc(NC(=O)c3ccc(Cl)cc3)ccc21 | inactive: 8.59% | –
CC1(C)CC(=O)CC(=NCC(=O)O)C1 | inactive: -3.26% | –
CO[C@H]1CN(C)C(=O)c2cc(NC(=O)c3ccccc3)ccc2OC[C@H](C)NC[C@@H]1C | – | inconclusive: 44.7 µM [inhibitor, partial curve, poor fit]
Cc1cccc(N(C)C(=O)CN2C(=O)COc3ccc(S(=O)(=O)N4CCCCCC4)cc32)c1 | – | inconclusive: 5.01 µM [inhibitor, full curve, poor fit]
O=c1c2c(ncn2Cc2ccco2)n(Cc2ccccc2)c(=O)n1CC(O)c1ccccc1 (configuration not stated) | – | inconclusive: 17.8 µM [inhibitor, single point]
CC(Sc1nnc(COc2ccc(Cl)cc2)n1C)C(=O)c1ccc(Cl)cc1 (configuration not stated) | – | inconclusive: 70.8 µM [inhibitor, partial curve, poor fit]
O=C(O)C/C(=C/c1ccc(Cl)cc1)c1nc2ccccc2s1 | – | inconclusive: 25.1 µM [inhibitor, single point]
O=C(CSc1ncc(-c2ccc(F)cc2)o1)NC1CCCC1 | inactive: -25.4% | –
COc1ccc(CN(C(=O)CNC(=O)c2ccco2)C(C(=O)NC2CCCC2)c2ccco2)cc1 (configuration not stated) | – | inconclusive: 44.7 µM [inhibitor, partial curve, poor fit]
Fc1ccc(C2CC(c3cccs3)=NN2c2ccccc2)cc1 (configuration not stated) | – | inconclusive: 35.5 µM [inhibitor, partial curve]
O=C(NCc1ccc(Cl)cc1)c1ccc(CSCc2cccc(Cl)c2)o1 | inactive: -23.6% | –
Cc1cccc(C)c1NC(=O)COC(=O)CC1Sc2ccccc2NC1=O (configuration not stated) | – | inconclusive: 39.8 µM [inhibitor, partial curve, poor fit]
CCOc1ccccc1OCC(=O)Nc1cc(S(=O)(=O)N2CCCCC2)ccc1N1CCN(CC)CC1 | – | inconclusive: 44.7 µM [inhibitor, partial curve, poor fit]
Cc1ncsc1CCC(=O)N1CC(=O)N(C2CCCCC2)CC(OCc2ccccc2)C1 (configuration not stated) | inactive: 40.1% | –
COc1cccc(C(=O)NC2CC3CCCC(C2)N3CC(=O)Nc2ccccc2)c1 (configuration not stated) | – | inconclusive: 141 µM [inhibitor, partial curve, poor fit]

SMILES | activity change, negative = inhibition | Potency
Cc1cc(C)c2cc(C#N)c(N3CCNCC3)nc2c1 | – | inconclusive: 31.6 µM [inhibitor, single point]
COc1ccccc1NC(=S)NCCc1ccc(Cl)cc1 | – | inconclusive: 44.7 µM [inhibitor, partial curve, poor fit]
COc1cc(/C=N/N(C)C)cc(Br)c1O | inactive: -5.66% | –
COc1ccc(COC(=O)Oc2ccc(CNC(C)=O)cc2OC)c([N+](=O)[O-])c1 | – | inconclusive: 100 µM [inhibitor, single point]
CCCn1ccnc1CN1C[C@@H](NC(=O)c2ccon2)C[C@H]1C(=O)NCC | inactive: 113% | –
CS(=O)(=O)c1ccc(OCC2(CNC(=O)N3CCOCC3)C[C@@H](O)[C@@H](O)C2)cc1 (some centres not stated) | inactive: 32.3% [at 176 µM] | –
Cc1ccnc(NS(=O)(=O)c2ccc(NC(=O)C(C)(C)Oc3ccc(Cl)cc3)cc2)n1 | – | inconclusive: 100 µM [inhibitor, partial curve, poor fit]
Cc1cc(/C=C2\NC(=S)NC2=O)c(C)n1-c1cccnc1 | inactive: 0% | –
Cc1ccc([C@@H]2CC=C(C(=O)O)[C@H](c3ccc(Cl)cc3)N2S(=O)(=O)c2ccc(C)cc2)cc1 | – | inconclusive: 100 µM [inhibitor, single point]
COc1ccccc1/C=[N+](\[O-])C1SC(=S)N(C)C1(C)C (configuration not stated) | – | inconclusive: 100 µM [inhibitor, single point]
CC1(C(=O)NS(=O)(=O)c2ccc(Cl)s2)CCN1C(=O)C1CCCCC1 (configuration not stated) | – | inconclusive: 50.1 µM [inhibitor, partial curve, poor fit]
CCOc1cccc2cc(-c3cn4c(n3)sc3cc(C)ccc34)c(=O)oc12 | – | inconclusive: 25.1 µM [inhibitor, partial curve, poor fit]
COc1ccc(OC)c(CNC(=O)CCNC(=O)Cn2ccc3ccccc3c2=O)c1 | – | inconclusive: 141 µM [inhibitor, partial curve, poor fit]
COc1ccccc1CNc1cc(-c2ccccc2C)ncn1 | – | inconclusive: 44.7 µM [inhibitor, partial curve, poor fit]
NC(=O)CC(NC(=O)Cc1ccc(Br)cc1)c1ccc(NC2CCN(Cc3ccccc3)CC2)c([N+](=O)[O-])c1 (configuration not stated) | – | inconclusive: 44.7 µM [inhibitor, partial curve, poor fit]
COCCNc1nc(-c2ccc(Cl)cc2C)c2sccc2n1 | – | inconclusive: 50.1 µM [inhibitor, partial curve, poor fit]
CCOc1ccccc1NC(=O)CSc1nc2c(c(=O)[nH]1)CCC2 | – | inconclusive: 158 µM [inhibitor, partial curve, poor fit]
Nc1nc(Nc2cccc(C(F)(F)F)c2)sc1C(=O)c1ccccc1 | – | inconclusive: 3.16 µM [inhibitor, full curve, poor fit]
O=C(NCc1ccco1)c1cc2cc(Br)ccc2[nH]1 | – | active: 31.6 µM
Fc1ccccc1/C=N/n1c(C2CCCCC2)n[nH]c1=S | – | inconclusive: 70.8 µM [inhibitor, partial curve, poor fit]

Complete entries, looked up by structure.
Nc1nc(Nc2cccc(C(F)(F)F)c2)sc1C(=O)c1ccccc1 as listed: Potency: inconclusive: 3.16 µM [inhibitor, full curve, poor fit]
CS(=O)(=O)c1ccc(OCC2(CNC(=O)N3CCOCC3)C[C@@H](O)[C@@H](O)C2)cc1 (some centres not stated) as listed: activity change, negative = inhibition: inactive: 32.3% [at 176 µM]
Cc1cc(/C=C2\NC(=S)NC2=O)c(C)n1-c1cccnc1 as listed: activity change, negative = inhibition: inactive: 0%

Retrieved one by one from the entries so far:
SMILES | activity change, negative = inhibition | Potency
COc1ccccc1/C=[N+](\[O-])C1SC(=S)N(C)C1(C)C (configuration not stated) | – | inconclusive: 100 µM [inhibitor, single point]
CCOc1cccc2cc(-c3cn4c(n3)sc3cc(C)ccc34)c(=O)oc12 | – | inconclusive: 25.1 µM [inhibitor, partial curve, poor fit]
